Reference: patent publication US20170165336A1
These are yes or no findings as the source states them, for the method shown. In cells and extracts the contact can be indirect. Binding can be weak; no strength is given. Tags and fused reporters may be left off the sequences shown.

Legend:
[1] = target: V5-tagged rev (HIV-1 rev cDNA in pcDNA6-v5-hisA) (HIV-1); assay: co-immunoprecipitation, told again in the discussion
[2] = target: V5-tagged rev (HIV-1 rev cDNA in pcDNA6-v5-hisA) (HIV-1); assay: co-immunoprecipitation (FIG. 19a) and strep-tactin pull-down (FIG. 19b)
[3] = target: v5-tagged orf57 (RRV orf57 cDNA in pEF1-v5-hisA) (rhesus monkey rhadinovirus (RRV)); assay: as above
[4] = target: V5-tagged rev (HIV-1 rev cDNA in pcDNA6-v5-hisA) (HIV-1); assay: co-immunoprecipitation with mouse v5 antibody from transfected 293T cell lysates, anti-FLAG immunoblot (interaction RNA-mediated per the filing)
[5] = target: v5-tagged orf57 (RRV orf57 cDNA in pEF1-v5-hisA) (rhesus monkey rhadinovirus (RRV)); assay: as above

Measured: binding

B1: human schlafen 14 (FLAG-tagged, expressed from pcDNA4-FLAG) (protein)
chain: MESLKTDTEMPYPEVIVDVGRVIFGEENRKKMTNSCLKRSENSRIIRAICALLNSGGGVIKAEIDDKTYSYQCHGLGQDLETSFQKLLPSGSQKYLDYMQQGHNLLIFVKSWSPDVFSLPLRICSLRSNLYRRDVTSAINLSASSALELLREKGFRAQRGRPRVKKLHPQQVLNRCIQEEEDMRILASEFFKKDKLMYKEKLNFTESTHVEFKRFTTKKVIPRIKEMLPHYVSAFANTQGGYVLIGVDDKSKEVVGCKWEKVNPDLLKKEIENCIEKLPTFHFCCEKPKVNFTTKILNVYQKDVLDGYVCVIQVEPFCCVVFAEAPDSWIMKDNSVTRLTAEQWVVMMLDTQSAPPSLVTDYNSCLISSASSARKSPGYPIKVHKFKEALQRHLFPVTQEEVQFKPESLCKKLFSDHKELEGLMKTLIHPCSQGIVIFSRSWAGDVGFRKEQNVLCDALLIAVNSPVVLYTILIDPNWPGGLEYARNTAHQLKQKLQTVGGYTGKVCIIPRLIHLSSTQSRPGEIPLRYPRSYRLADEEEMEDLLQALVVVSLSSRSLLSDQMGCEFFNLLIMEQSQLLSESLQKTRELFIYCFPGVRKTALAIKIMEKIKDLFHCKPKEILYVCESDSLKDFVTQQTTCQAVTRKTFMQGEFLKIKHIVMDETENFCSKYGNWYMKAKNITHPKAKGTGSENLHHGILWLFLDPFQIHHADVNGLPPPSAQFPRKTITSGIHCALEIAKVMKEEMKRIKENPPSNMSPDTLALFSETAYEEATCAQALPGVCETKTNLTTEQIANYVARKCHSLFQCGYLPKDIAILCRRGEDRGRYRLALLKAMELIETHRPSEVVFSPATGVWGSHIVLDSIQQFSGLERTVVFGLSPECDQSEEFHKLCFASRAIKHLYLLYEKRAAY
binds: [1] | [2] | [3] | [4] | [5]
